Measurements reported in PubChem BioAssay AID1159593 (NIAID, 2016).

Assay: 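Canonical TLR pathway genes needed for NF-kappaB activation by LPS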
System: RAW264.7 macrophages of mouse, with reporters for p65 (GFP) and the Tnf promoter (mCherry)
Reagents: single siRNA against mouse genes
Duration: 48 to 72 hours after siRNA transfection, then LPS for 40 min
Challenge: LPS (Salmonella minnesota R595) for 40 min before fixation; dose not given
Measurement: 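Imaged nuclear over cytoplasmic GFP-p65 intensity after 40 min LPS, normalised per plate by median and MAD, robust z-score versus negative controls, mean of replicates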
Scale: p65 translocation z-score: higher = more nuclear NF-kappaB p65 after LPS
Hit rule: 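Activity score grows with absolute z: 25 beyond 1, 50 beyond 1.5, 75 beyond 2, 100 beyond 2.5; active calls here sit at about z 1.5 or more either way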
Meaning of the calls: active = changed p65 translocation (either direction); inactive = no clear change
In all, the deposit lists 756 reagents; below is a part drawn at random. 137 of all reagents (18%) count as active. 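Active means p65 translocation went either up or down; genes were judged on the median of six siRNAs, not single siRNAs.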 A number with no mark means an inactive call. The numbers tell different reagents against one gene apart. Not stated in the record: the amount of reagent.

Target gene | reagent | p65 translocation z-score
Ptk2b (GeneID 19229) | 1 | 1.05
Ptk2b (GeneID 19229) | 2 | 1.15
Ptk2b (GeneID 19229) | 3 | -0.126
Ptk2b (GeneID 19229) | 4 | -0.468
Ptk2b (GeneID 19229) | 5 | -0.196
Ptk2b (GeneID 19229) | 6 | -0.14
Pik3r2 (GeneID 18709) | 1 | -0.807
Pik3r2 (GeneID 18709) | 2 | 0.0469
Pik3r2 (GeneID 18709) | 3 | 0.0558
Pik3r2 (GeneID 18709) | 4 | -0.275
Pik3r2 (GeneID 18709) | 5 | 1.3
Pik3r2 (GeneID 18709) | 6 | 0.0213
Ube2n (GeneID 93765) | 1 | 0.179
Ube2n (GeneID 93765) | 2 | -1.1
Ube2n (GeneID 93765) | 3 | 0.69
Ube2n (GeneID 93765) | 4 | 0.0273
Ube2n (GeneID 93765) | 5 | -2.01 (active)
Ube2n (GeneID 93765) | 6 | 0.144
Irak3 (GeneID 73914) | 1 | -1.51 (active)
Irak3 (GeneID 73914) | 2 | -1.12
Irak3 (GeneID 73914) | 3 | -0.371
Irak3 (GeneID 73914) | 4 | -0.306
Irak3 (GeneID 73914) | 5 | -0.475
Irak3 (GeneID 73914) | 6 | -1.83 (active)
Ptpn6 (GeneID 15170) | 1 | 0.00781
Ptpn6 (GeneID 15170) | 2 | 0.386
Ptpn6 (GeneID 15170) | 3 | -2.82 (active)
Ptpn6 (GeneID 15170) | 4 | -1
Ptpn6 (GeneID 15170) | 5 | 1.67 (active)
Ptpn6 (GeneID 15170) | 6 | -2.2 (active)
Peli1 (GeneID 67245) | 1 | -0.385
Peli1 (GeneID 67245) | 2 | -0.571
Peli1 (GeneID 67245) | 3 | -0.56
Peli1 (GeneID 67245) | 4 | 0.786
Peli1 (GeneID 67245) | 5 | -1.6 (active)
Peli1 (GeneID 67245) | 6 | -0.84
Fadd (GeneID 14082) | 1 | -0.156
Fadd (GeneID 14082) | 2 | -1.27
Fadd (GeneID 14082) | 3 | -1.36
Fadd (GeneID 14082) | 4 | -0.827
Fadd (GeneID 14082) | 5 | -0.409
Fadd (GeneID 14082) | 6 | -0.0912
Atf7 (GeneID 223922) | 1 | -1.43
Atf7 (GeneID 223922) | 2 | -0.582
Atf7 (GeneID 223922) | 3 | -0.128
Atf7 (GeneID 223922) | 4 | -0.35
Atf7 (GeneID 223922) | 5 | 0.338
Atf7 (GeneID 223922) | 6 | -0.846
Ticam2 (GeneID 225471) | 1 | -1.4
Ticam2 (GeneID 225471) | 2 | -0.702
Ticam2 (GeneID 225471) | 3 | 0.571
Ticam2 (GeneID 225471) | 4 | -0.168
Ticam2 (GeneID 225471) | 5 | 0.228
Ticam2 (GeneID 225471) | 6 | -1.72 (active)
Sigirr (GeneID 24058) | 1 | -2.05 (active)
Sigirr (GeneID 24058) | 2 | -2.56 (active)
Sigirr (GeneID 24058) | 3 | -0.878
Sigirr (GeneID 24058) | 4 | -1.51 (active)
Sigirr (GeneID 24058) | 5 | -1.03
Sigirr (GeneID 24058) | 6 | -0.692
Akt2 (GeneID 11652) | 1 | -1.05
Akt2 (GeneID 11652) | 2 | -0.467
Akt2 (GeneID 11652) | 3 | 0.534
Akt2 (GeneID 11652) | 4 | 0.721
Akt2 (GeneID 11652) | 5 | -1.09
Akt2 (GeneID 11652) | 6 | 1.53 (active)
Irf3 (GeneID 54131) | 1 | -1.13
Irf3 (GeneID 54131) | 2 | 1.54 (active)
Irf3 (GeneID 54131) | 3 | -2.11 (active)
Irf3 (GeneID 54131) | 4 | 3.72 (active)
Irf3 (GeneID 54131) | 5 | 0.723
Irf3 (GeneID 54131) | 6 | 0.575
Tab1 (GeneID 66513) | 1 | -0.134
Tab1 (GeneID 66513) | 2 | -0.484
Tab1 (GeneID 66513) | 3 | -0.667
Tab1 (GeneID 66513) | 4 | -0.622
Tab1 (GeneID 66513) | 5 | -1.79 (active)
Tab1 (GeneID 66513) | 6 | -0.0679
Pik3r3 (GeneID 18710) | 1 | 0.381
Pik3r3 (GeneID 18710) | 2 | 0.225
Pik3r3 (GeneID 18710) | 3 | 1.55 (active)
Pik3r3 (GeneID 18710) | 4 | -1.62 (active)
Pik3r3 (GeneID 18710) | 5 | 0.139
Pik3r3 (GeneID 18710) | 6 | 0.886
Tlr2 (GeneID 24088) | 1 | -0.553
Tlr2 (GeneID 24088) | 2 | -0.963
Tlr2 (GeneID 24088) | 3 | 0.925
Tlr2 (GeneID 24088) | 4 | 0.41
Tlr2 (GeneID 24088) | 5 | 0.966
Tlr2 (GeneID 24088) | 6 | 0.258
Map2k1 (GeneID 26395) | 1 | 0.634
Map2k1 (GeneID 26395) | 2 | 0.169
Map2k1 (GeneID 26395) | 3 | -0.145
Map2k1 (GeneID 26395) | 4 | 0.205
Map2k1 (GeneID 26395) | 5 | 0.658
Map2k1 (GeneID 26395) | 6 | 0.317

The list goes on, starting with the last 2 of the part before.
Target gene | reagent | p65 translocation z-score
Map2k1 (GeneID 26395) | 5 | 0.658
Map2k1 (GeneID 26395) | 6 | 0.317
Dab2ip (GeneID 69601) | 1 | -0.412
Dab2ip (GeneID 69601) | 2 | 0.937
Dab2ip (GeneID 69601) | 3 | -1.22
Dab2ip (GeneID 69601) | 4 | 2.5 (active)
Dab2ip (GeneID 69601) | 5 | -0.345
Dab2ip (GeneID 69601) | 6 | -0.245
Irak1 (GeneID 16179) | 1 | -0.89
Irak1 (GeneID 16179) | 2 | 0.232
Irak1 (GeneID 16179) | 3 | -0.542
Irak1 (GeneID 16179) | 4 | -1.09
Irak1 (GeneID 16179) | 5 | 0.577
Irak1 (GeneID 16179) | 6 | -0.175
Mapk1 (GeneID 26413) | 1 | -0.325
Mapk1 (GeneID 26413) | 2 | -0.922
Mapk1 (GeneID 26413) | 3 | -0.519
Mapk1 (GeneID 26413) | 4 | 0.877
Mapk1 (GeneID 26413) | 5 | 0.639
Mapk1 (GeneID 26413) | 6 | 3.89 (active)
Ifnar2 (GeneID 15976) | 1 | 2.08 (active)
Ifnar2 (GeneID 15976) | 2 | -1.11
Ifnar2 (GeneID 15976) | 3 | 1.25
Ifnar2 (GeneID 15976) | 4 | -0.58
Ifnar2 (GeneID 15976) | 5 | 0.6
Ifnar2 (GeneID 15976) | 6 | -1.72 (active)
Elk4 (GeneID 13714) | 1 | -2.11 (active)
Elk4 (GeneID 13714) | 2 | -0.228
Elk4 (GeneID 13714) | 3 | -0.268
Elk4 (GeneID 13714) | 4 | -1.12
Elk4 (GeneID 13714) | 5 | -0.802
Elk4 (GeneID 13714) | 6 | -0.834
Akt1 (GeneID 11651) | 1 | -1.56 (active)
Akt1 (GeneID 11651) | 2 | -2.67 (active)
Akt1 (GeneID 11651) | 3 | 0.427
Akt1 (GeneID 11651) | 4 | 3.9 (active)
Akt1 (GeneID 11651) | 5 | -1.31
Akt1 (GeneID 11651) | 6 | -1.1
Map2k2 (GeneID 26396) | 1 | 0.585
Map2k2 (GeneID 26396) | 2 | -0.666
Map2k2 (GeneID 26396) | 3 | -0.246
Map2k2 (GeneID 26396) | 4 | 2.72 (active)
Map2k2 (GeneID 26396) | 5 | -0.187
Map2k2 (GeneID 26396) | 6 | -0.672
Tollip (GeneID 54473) | 1 | 0.799
Tollip (GeneID 54473) | 2 | -1.17
Tollip (GeneID 54473) | 3 | -2.55 (active)
Tollip (GeneID 54473) | 4 | -0.667
Tollip (GeneID 54473) | 5 | -0.51
Tollip (GeneID 54473) | 6 | -1.1
